# Most of the hits are listed elsewhere, so they are rarer here than in the full data. Results filed as inconclusive are left out. Activity calls are given as the source filed them. Calls follow the shape of the dose curve; as a rule, active = well fitted activation curve with a large enough effect; inconclusive = small, poorly fitted or top-dose-only effect; inactive = no such curve, though single readings can be large or run the other way.
# Assay: qHTS Assay for Enhancers of SMN2 Splice Variant Expression; also: % of control where 0% means no effect; nearly all actives have a fitted effect of over 55% in size
# Conditions: HEK293 SMN2-luciferase splicing reporter, luminescence, 30-36 h
# Description: NIH Chemical Genomics Center [NCGC] NIH Molecular Libraries Probe Production centers Network [MLPCN] MLPCN Grant: R03 MH084179-01 Assay Submitter (PI): Elliot Androphy NCGC Assay Overview: Spinal muscular atrophy (SMA) is caused by insufficient levels of the survival motor neuron protein SMN. The SMN locus on chromosome 5q13 contains two inverted copies of SMN called SMN1 and SMN2 which are 99% identical at the amino acid level. SMN1 is a fully functional protein and SMN2 skips exon 7 90% of the time. Skipping of exon 7 produces non-functional protein product. 10% of the SMN2 protein includes exon 7 and is fully functional. In the SMA disease state, mutations in the SMN1 locus are the cause of the disease state. Because only 10% of SMN2 is of the fully functional form, it is not sufficient to overcome the deficiency produced by the loss of the SMN1 product. A therapy that either increase the amount of SMN2 product made or to increase the inclusion of exon 7 has been proposed for the treatment of SMA. We have designed an assay to identify small molecules that can increase the amount of functional SMN2 product by appending a luciferase reporter gene after the native SMN2 gene, such that inclusion of exon 7 in the expressed product places the luciferase sequence in frame, thus generating functional luciferase enzyme.
# NCGC Assay Protocol Summary: This screen utilizes a luciferase reporter gene assay, combining the promoter and splicing based cassettes in tandem with the major portion of the native SMN2 cDNA, and then transfected into HEK293 cells. Compounds that increase luciferase signal presumably enhance expression of the functional SMN2 splice variant. Passaging media contained DMEM w/ glutamax (+phenol red) 10% FCS, 1x pen/strep, 200 ug/ml hygro, 1x sodium pyruvate. Assay media contained DMEM w/ glutamax (-phenol red) 10% FCS, 1x pen strep, 1x pyruvate Sequence, Parameter, Value, Description (1) Cells, […], 2000 cells/well, 1536 TC treated White solid bottom plate (2) Time, 10-12 hours, 37C 5% CO2 (3) Compound, 23 nl, MLSMR Library (4) Control Compound, 23 nL, Sodium butyrate st 4.5mM (final) conc (5) Time, 30-36 hours, 37C 5% CO2 (6) Reagent, 3 ul, One Glo (TM) from Promega (7) Time, 5-15 minutes, Room temp (8) Detector, Viewlux: luminescent read, 60 second integration, high speed 2x binning Keywords: Spinal muscular atrophy, SMA, SMN2, high throughput screening, MLSMR, MLPCN, NIH Roadmap, qHTS and NCGC
structure (smiles),measurement,setting,value
CN1C2CCC1CC(OC(=O)C(O)c1ccccc1)C2 (centres undefined),"activity change, positive = activation",at 46.1 µM (top of the series),inactive: 0.401%
COC(=O)c1ccc(NC(C)=O)cc1O,"activity change, positive = activation",at 46.1 µM (top of the series),inactive: -30.7%
CN1[C@@H]2CC[C@H]1CC(OC(=O)[C@@H](O)c1ccccc1)C2 (some centres undefined),"activity change, positive = activation",at 9.22 µM (top of the series),inactive: -0.365%
same,"activity change, positive = activation",at 20.6 µM (top of the series),inactive: -2.2%

# Reference: PubChem BioAssay AID1458 (National Center for Advancing Translational Sciences (NCATS), 2008)
